In article PMC7473519:
No constants are given. Whether binding was seen depends on the method and setting. Binding seen in cells or lysates may run through a third protein.

Target: minichromosome maintenance complex (MCM) (human (endogenous in HEK293T and U2OS)), P49736
Test: co-IP; anti-MCM2 immunoprecipitation from lysate of nocodazole-arrested U2OS cells producing HA-Cdt1-WT, alone or mixed with lysate of the same cells growing asynchronously; blots for HA-Cdt1, MCM6, Geminin
Settings: remark: other sources report otherwise

B1: Geminin, O75496 1-209 (protein)
chain: MNPSMKQKQEEIKENIKNSSVPRRTLKMIQPSASGSLVGRENELSAGLSKRKHRNDHLTSTTSSPGVIVPESSENKNLGGVTQESFDLMIKENPSSQYWKEVAEKRRKALYEALKENEKLHKEIEQKDNEIARLKKENKELAEVAEHVQYMAELIERLNGEPLDNFESLDNQEFDSEEETVEDSLVEDSEIGTCAEGTVSSSTDAKPCI
binding: no binding
